This list was built around the results that the source calls inconclusive (neither active nor inactive); the mix of calls is not that of the screen. Where the call is inconclusive, the potency comes from a doubtful curve fit. Active and inactive are the calls of the source. The calls were made as follows: active = hit-call score of the fitted dose curve at least 0.9, where 1 is the maximum; inconclusive = response in the unintended direction; inactive = score below 0.9.
Target: rat Thyrotropin Releasing Hormone Receptor (TRH), Trhr (gene 25570) (UniProt Q01717)
Assay: NVS_GPCR_rTRH: NovaScreen (NVS) G Protein-Coupled Receptor Assay for rat Thyrotropin Releasing Hormone Receptor (TRH) (AID 2283329);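 also: hit means lower bound tracer signal versus DMSO baseline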
Procedure, shortened: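 Competitive radioligand binding on rat forebrain membrane preparations, with filtration and scintillation readout after 4 h. Primary testing in duplicate at 25 uM; actives confirmed in concentration-response. DMSO defined baseline.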

Sequences of proteins named here, by UniProt entry; tags and fusion partners are left off. A change or cut given only in a name is not applied to a line headed by its entry.
UniProt Q01717: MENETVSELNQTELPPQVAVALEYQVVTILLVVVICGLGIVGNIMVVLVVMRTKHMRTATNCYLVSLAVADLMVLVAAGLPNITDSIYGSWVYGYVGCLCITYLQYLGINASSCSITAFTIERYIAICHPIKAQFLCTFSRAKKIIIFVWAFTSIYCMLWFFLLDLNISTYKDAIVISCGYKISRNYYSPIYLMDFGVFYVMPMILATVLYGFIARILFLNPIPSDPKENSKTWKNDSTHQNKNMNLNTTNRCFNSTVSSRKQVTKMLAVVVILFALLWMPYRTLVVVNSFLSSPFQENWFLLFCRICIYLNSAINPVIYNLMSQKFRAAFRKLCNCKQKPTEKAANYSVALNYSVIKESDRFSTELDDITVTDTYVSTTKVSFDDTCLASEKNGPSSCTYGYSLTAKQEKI

outcome, inactive:
COC(=O)c1ccc(C)cc1C1=NC(C)(C(C)C)C(=O)N1 (stereo not given) (tested in a mixture with another compound), CCCC/C=C\CCCCCCCCCC=O, O=C(Oc1ccccc1)c1ccccc1, CCc1cccc(O)c1, CC12CCC(C1)C(C)(C)C2O (stereo not given), CN(C)Cc1cc(CN(C)C)c(O)c(CN(C)C)c1, CC(C)C[C@H]1C(=O)N2CCC[C@H]2[C@]2(O)O[C@](NC(=O)[C@@H]3C=C4c5cccc6[nH]c(Br)c(c56)C[C@H]4N(C)C3)(C(C)C)C(=O)N12, CCOC(=O)c1ccccc1C, CCCCCC(=O)CC, CCCCCCCCN1CCCC1=O, O=C(Cl)c1cccc(C(=O)Cl)c1

AC50, inconclusive:
CCCCCCOC(=O)CCCCC(=O)OCCCCCC 25 µM, O=C(O)CCC(=O)O 0.115 µM, CCOC(=O)C1CC(=O)C(=C(O)C2CC2)C(=O)C1 (stereo not given) 25 µM, COc1ccc(OC)cc1 0.199 µM, Cc1cccnc1 0.0513 µM, CCCCC(CC)COC(=O)CCCCCCCCC(=O)OCC(CC)CCCC (stereo not given) 6.46 µM, CC(C)(C)c1csc(-c2cc3cc(OCc4ccccc4CC(=O)O)ccc3o2)n1 0.127 µM, CC(=O)Nc1cc(S(=O)(=O)O)cc2cc(S(=O)(=O)O)c(N=Nc3ccccc3)c(O)c12 25 µM, NC(=O)c1cccnc1 26.2 µM, CC1COC(=O)O1 (stereo not given) 0.457 µM, Sc1nc2ccccc2s1 25 µM, Nc1ccc(N)c2c1C(=O)c1ccccc1C2=O 25 µM, O=C(O)c1cc(O)c2ccccc2c1O 25 µM, CCCCCCCCCC(=O)OC 1.37 µM, CNC(=S)NC 0.119 µM, CCCC(C)=O 1.85 µM, O=C(O)C(=O)O 6.78 µM, CCCCCCC(CO)CCCC (stereo not given) 3.63 µM, CC1(C)C(=O)N(Cl)C(=O)N1Br 6.63 µM, CCCC1CCC(=O)O1 (stereo not given) 6.08 µM, OB(O)O 25 µM, CCCCCCCCc1ccc(S(=O)(=O)O)cc1 25 µM, CN(C)C(=O)Nc1ccccc1 25 µM, O=C(O)Cc1cc(I)c(Oc2ccc(O)c(I)c2)c(I)c1 25 µM

Reference: PubChem BioAssay (EPA / NIEHS)
